We go through 1 substance from paper PMC2650799.

Sequences of proteins named here, by UniProt entry; tags and fusion partners are left off.
UniProt P11103: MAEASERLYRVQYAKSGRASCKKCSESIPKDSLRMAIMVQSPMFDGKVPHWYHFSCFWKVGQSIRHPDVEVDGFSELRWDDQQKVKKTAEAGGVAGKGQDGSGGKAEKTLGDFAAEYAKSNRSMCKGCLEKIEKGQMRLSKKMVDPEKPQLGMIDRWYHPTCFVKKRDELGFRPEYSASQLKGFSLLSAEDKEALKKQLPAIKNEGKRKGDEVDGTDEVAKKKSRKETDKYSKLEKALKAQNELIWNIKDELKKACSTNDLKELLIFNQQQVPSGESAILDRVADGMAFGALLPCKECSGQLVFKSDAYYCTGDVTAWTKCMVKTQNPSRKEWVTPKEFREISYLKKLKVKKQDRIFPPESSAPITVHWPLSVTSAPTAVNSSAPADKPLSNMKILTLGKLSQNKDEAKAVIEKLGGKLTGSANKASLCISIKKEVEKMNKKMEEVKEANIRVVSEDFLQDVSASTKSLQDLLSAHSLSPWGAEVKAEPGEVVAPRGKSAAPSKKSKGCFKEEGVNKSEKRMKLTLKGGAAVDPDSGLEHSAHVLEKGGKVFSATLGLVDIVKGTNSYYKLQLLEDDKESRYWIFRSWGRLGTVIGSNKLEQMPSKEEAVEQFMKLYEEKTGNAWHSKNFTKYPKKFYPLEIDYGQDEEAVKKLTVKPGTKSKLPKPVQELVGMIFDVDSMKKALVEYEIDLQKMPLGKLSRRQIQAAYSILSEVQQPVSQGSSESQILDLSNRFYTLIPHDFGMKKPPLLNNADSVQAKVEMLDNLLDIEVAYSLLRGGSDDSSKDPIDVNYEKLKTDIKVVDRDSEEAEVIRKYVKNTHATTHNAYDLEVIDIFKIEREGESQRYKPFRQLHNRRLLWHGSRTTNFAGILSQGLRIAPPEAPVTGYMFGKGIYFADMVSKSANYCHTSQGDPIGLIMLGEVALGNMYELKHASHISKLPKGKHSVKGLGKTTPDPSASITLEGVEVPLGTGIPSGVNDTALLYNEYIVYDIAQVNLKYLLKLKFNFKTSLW
UniProt P13864: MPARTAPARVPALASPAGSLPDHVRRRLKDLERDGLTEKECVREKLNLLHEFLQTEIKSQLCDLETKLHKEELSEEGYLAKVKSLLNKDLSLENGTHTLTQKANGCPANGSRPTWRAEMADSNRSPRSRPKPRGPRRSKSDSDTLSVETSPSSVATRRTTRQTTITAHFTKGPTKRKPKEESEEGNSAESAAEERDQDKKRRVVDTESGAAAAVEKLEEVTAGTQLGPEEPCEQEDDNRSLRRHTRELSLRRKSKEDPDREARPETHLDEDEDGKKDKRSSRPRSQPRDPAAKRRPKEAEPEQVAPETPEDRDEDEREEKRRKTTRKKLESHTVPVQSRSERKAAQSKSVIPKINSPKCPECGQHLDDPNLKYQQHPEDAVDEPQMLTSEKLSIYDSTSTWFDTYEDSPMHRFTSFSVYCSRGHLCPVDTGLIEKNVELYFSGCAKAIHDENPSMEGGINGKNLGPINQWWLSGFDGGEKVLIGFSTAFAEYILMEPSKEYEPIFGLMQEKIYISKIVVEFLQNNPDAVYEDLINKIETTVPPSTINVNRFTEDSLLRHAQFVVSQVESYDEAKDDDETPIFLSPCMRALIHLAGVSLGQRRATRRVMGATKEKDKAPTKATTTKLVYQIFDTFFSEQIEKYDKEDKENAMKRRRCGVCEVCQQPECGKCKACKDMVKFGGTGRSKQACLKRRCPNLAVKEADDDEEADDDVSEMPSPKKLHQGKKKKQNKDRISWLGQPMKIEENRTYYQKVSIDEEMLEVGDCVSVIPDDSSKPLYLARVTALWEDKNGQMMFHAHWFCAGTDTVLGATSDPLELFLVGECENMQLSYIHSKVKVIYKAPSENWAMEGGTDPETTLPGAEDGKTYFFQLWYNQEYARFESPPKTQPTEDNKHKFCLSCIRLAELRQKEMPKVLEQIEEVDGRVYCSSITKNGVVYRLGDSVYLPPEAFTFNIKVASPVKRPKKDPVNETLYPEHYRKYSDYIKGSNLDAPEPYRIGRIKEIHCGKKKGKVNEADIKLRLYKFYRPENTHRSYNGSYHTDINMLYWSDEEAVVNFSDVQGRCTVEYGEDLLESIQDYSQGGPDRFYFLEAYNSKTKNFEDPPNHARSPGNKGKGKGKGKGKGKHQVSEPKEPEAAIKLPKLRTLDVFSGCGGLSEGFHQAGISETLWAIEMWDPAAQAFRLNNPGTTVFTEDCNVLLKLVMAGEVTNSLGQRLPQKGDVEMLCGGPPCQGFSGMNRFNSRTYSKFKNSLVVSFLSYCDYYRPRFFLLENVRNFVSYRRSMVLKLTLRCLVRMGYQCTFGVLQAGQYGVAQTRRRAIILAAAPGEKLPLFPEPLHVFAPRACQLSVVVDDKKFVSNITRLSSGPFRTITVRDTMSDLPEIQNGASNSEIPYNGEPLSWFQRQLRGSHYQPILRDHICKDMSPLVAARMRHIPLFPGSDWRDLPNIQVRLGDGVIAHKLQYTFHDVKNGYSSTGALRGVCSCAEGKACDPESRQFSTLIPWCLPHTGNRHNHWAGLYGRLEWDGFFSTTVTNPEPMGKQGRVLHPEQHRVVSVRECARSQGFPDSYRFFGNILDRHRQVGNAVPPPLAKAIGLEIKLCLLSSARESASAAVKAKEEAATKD

These are yes or no findings as the source states them, for the method shown. Binding seen in cells or lysates may run through a third protein. Some entries that bind do so weakly or less than the wild type.

This test concerns the target poly(ADP-ribose) polymerase 1 (Parp1) (mouse (endogenous in L929)) (UniProt P11103). In words: co-IP; nuclear lysates of L929 cells (1.5 mg) in IP buffer (50 mM Tris-HCl pH 7.5, 5 mM EDTA, 300 mM NaCl, 1% Nonidet P-40, 1% Triton X-100); immunoprecipitated with anti-PARP-1 (rabbit polyclonal) or anti-Dnmt1 (mouse monoclonal) at 4°C, protein A- or G-agarose; western blot, anti-PAR used to detect polymers. In general terms: In western blotting, separated proteins are transferred to a membrane and probed.

Regarding “DNA methyltransferase 1 (Dnmt1) (from UniProt P13864 1-1620) (enzyme)”, the binding entry is listed as “binds”.
